PubChem BioAssay AID1347426 (Functional Genomics Laboratory (NCATS/FGL), 2020)
Hit rate of the full screen: of about 31,000 sequences, about 1,400 (4.5%) were called active.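 The calls were made as follows: active = median seed-adjusted z-score above 1 or below -1; inactive = the rest.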 The list shows a part of the results.

assay: Novel Modifiers of Survival Motor Neuron (SMN) Protein: Gene Identification via Genome-wide siRNA Screen; conditions: HEK293T SMN2-luciferase reporter, siRNA knockdown, 72 h; actives lie on both sides
Summary of the method: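 Each of three siRNAs per gene is reverse-transfected (1 pmol) into reporter HEK293T cells whose luciferase output tracks SMN protein level. After 72 h culture, ONE-Glo luminescence is control-normalized, log10-transformed and MAD-standardized; Common Seed Analysis deprioritizes seed-driven hits.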

Row | Sequence | median seed-adjusted z-score
1 | CAAACAAGGAUGUUCGAAATT against EIF3E | inactive: 0.549
2 | GCCUGUUGCUCAUGACUUUTT against KCNJ4 | inactive: -0.492
3 | CAUCAUUACCAGAGCUACATT against RLN1 | inactive: 0.0637
4 | GGACUACAUGAAUGGAACATT against NMNAT1 | inactive: 0.22
5 | CCCAUAUGAUUACCCAUUUTT against MYH2 | inactive: -0.73
6 | GGAUUAAAGUGUGAAGACUTT against PRKCD | inactive: -0.236
7 | GGAUUAAAGUAUCCUGGAATT against PON1 | inactive: 0
8 | GGACAUCUUUAGUACCAGATT against AGFG2 | inactive: -0.289
9 | AUAUCAUUCCAGUCUCAUATT against ZNF154 | inactive: 0
10 | GACCCUAAGCAGUAUAAGATT against CHSY3 | inactive: -0.113
11 | CAGGCGCCUGAAGUACAUATT against SLC35A2 | active: 1.06
12 | AGAUAGCAGAGAGUCUUUUTT against NKIRAS2 | inactive: 0.111
13 | CGCUAUCCCAAUCGCUUUATT against CYB5R1 | inactive: 0
14 | GCCUCGAAGUGCCUCUAUATT against DNAJB11 | inactive: -0.0495
15 | AGAGCAUGCAGGUACCCUUTT against CCL1 | inactive: 0.537
16 | ACGUAGGCGGCAUCAAGUATT against KCNG1 | inactive: -0.00995
17 | CUAACGUAGAGGAAGCAUUTT against RAB11B | inactive: -0.857
18 | GGAAUUCGGUGAUGUAUGATT against CACNA1C | inactive: 0
19 | GCAUGUGGGCAGAACAAAATT against GHRH | inactive: -0.16
20 | GGGUUACAGAGUCAGCGAATT against CACNB4 | inactive: -0.223
21 | CGCCCAUAUUCUUAUGAAATT against ADRB2 | inactive: 0.0987
22 | CAGAGGUUCUCAGACCGGATT against CASP9 | inactive: -0.0982
23 | UGAUCAUCCGGACUCCAUATT against HDAC8 | inactive: 0.835
24 | CUGAGUCCAUUGUCCUAUATT against BCO2 | inactive: -0.183
25 | GGUGAGAUGUCGUACACCATT against CYP4X1 | inactive: 0.546
26 | GGUGGACUCAGAUCACAGUTT against PEF1 | inactive: 0.651
27 | CAUACCUACCGGCUCAUUATT against USP26 | inactive: -0.0505
28 | AAGCUUUAAGAGUCAUUUATT against CDKN1C | inactive: -0.0497
29 | UGAGUAAACUGAUUCCUAATT against ITGB7 | inactive: 0.443
30 | CGUGACCUGUAUUUGAAAATT against AMPD3 | inactive: -0.0865

Looked up above.
Value of AAGCUUUAAGAGUCAUUUATT against CDKN1C under median seed-adjusted z-score: inactive: -0.0497
Value of UGAGUAAACUGAUUCCUAATT against ITGB7 under median seed-adjusted z-score: inactive: 0.443
